Laboratory results published in publication PMC4393111.

B1: endogenous IFT88 (protein, UniProt Q61371 1-824)
chain: MENVHLAPETDEDDLYSGFNDYNPAYDTEELENDTGFQQAVRTSHGRRPPVTAKIPSTAVSRPIATGYGSKTSLTSSMGRPMTGTIQDGVARPMTAVRAAGFSKAALRGSAFDPLGQSRGPAPPLEAKNEDSPEEKIRQLEKKVNELVEESCIANSCGDLKLALEKAKDAGRKERVLVRQREQVTSPENINLDLTYSVLFNLASQYSANEMYAEALNTYQVIVKNKMFSNAGRLKVNMGNIYLKQRNYSKAIKFYRMALDQIPSVHKEMRIKIMQNIGITFIKTGQYSDAINSFEHIMSMAPSLKAGFNLILSCFAIGDREKMKKAFQKLIAVPLEIDEDDKYISPSDDPHTNLLIEAIKNDHLRQMERERKAMAEKYIMTAAKLIAPVIEASFAVGYNWCVEVVKASQYVELANDLEINKAITYLRQKDFNQAVDTLKMFEKKDSRVKSAAATNLSFLYYLENEFAQASSYADLAVNSDRYNPSALTNKGNTVFANGDYEKAAEFYKEALRNDSSCTEALYNIGLTYKKLNRLDEALDSFLKLHAILRNSAQVLCQIANIYELMEDPNQAIEWLMQLISVVPTDSQALSKLGELYDSEGDKSQAFQYYYESYRYFPSNIEVIEWLGAYYIDTQFCEKAIQYFERASLIQPTQVKWQLMVASCFRRSGNYQKALDTYKEIHRKFPENVECLRFLVRLCTDIGLKEVQEYATKLKRLEKMKEMREQRIKSGRDSSGGSRSKREGSAGSDSGQNNSASSKSERLSAKLRALPGTDEPYESSGNKEIDASYVDPLGPQIERPKTAAKKRIDEDDFADEELGDDLLPE
B2: endogenous Rabin8 (protein, UniProt Q68EF0 1-428)
chain: MANDPLEGFHEVNLASPTSPDLLGVCDPGTQEQTTSPSVIYRPHPSTLCAAPLQANALDLSDLPTQPVYSSPRHFNCAEVSNISAHAPDPASSVPSAVASGLTKLTSRKDSCNAEREFLQGATITEASAGNDDIFGLSTDSLSRLRSPSVLEVREKGYERLKEELAKAQREAHKMVREANVKQATAEKQLKEAQGKIDVLQAEVAALKTLVLSSSPTSPTQEPLAAAKTPFKRGHTRNKSTSSAMGGSHQDLSVIQPIVKDCKEADLSLYNEFRSWKDEPTMDRTCPFLDKIYQEDIFPCLTFAKSELASAVLEAVENNTLSIEPVGLQPIRFVKASAVECGGPKKCALTGQSKPCRHRIRLGDSSCCYYISPFCRYRITSVCNFFTYIRYIQQGLVKQQDVDQMFWEVMQLRKEMSLAKLGYFKEEL

Target: GFP-Dzip1 (full-length mouse Dzip1) (mouse)
Test: co-IP; G0-phase cells (line not stated) expressing GFP-Dzip1 or GFP; IP of GFP-Dzip1, blots for endogenous proteins; IP buffer 0.1% NP-40, 50 mM HEPES pH 7.00, 125 mM NaCl, 4°C

Row | binding | Binder
1 | no binding | B1
2 | no binding | B2

No constants are given. Whether binding was seen depends on the method and setting. Binding seen in cells or lysates may run through a third protein.
